Test results reported in the supplement of paper PMC10849652.
The list shows a part of the results.

Chains of the proteins cited; added tags and fusions are not shown. Lines headed by an entry give the natural chain unless they say otherwise; changes in a name come on top.
UniProt Q13615: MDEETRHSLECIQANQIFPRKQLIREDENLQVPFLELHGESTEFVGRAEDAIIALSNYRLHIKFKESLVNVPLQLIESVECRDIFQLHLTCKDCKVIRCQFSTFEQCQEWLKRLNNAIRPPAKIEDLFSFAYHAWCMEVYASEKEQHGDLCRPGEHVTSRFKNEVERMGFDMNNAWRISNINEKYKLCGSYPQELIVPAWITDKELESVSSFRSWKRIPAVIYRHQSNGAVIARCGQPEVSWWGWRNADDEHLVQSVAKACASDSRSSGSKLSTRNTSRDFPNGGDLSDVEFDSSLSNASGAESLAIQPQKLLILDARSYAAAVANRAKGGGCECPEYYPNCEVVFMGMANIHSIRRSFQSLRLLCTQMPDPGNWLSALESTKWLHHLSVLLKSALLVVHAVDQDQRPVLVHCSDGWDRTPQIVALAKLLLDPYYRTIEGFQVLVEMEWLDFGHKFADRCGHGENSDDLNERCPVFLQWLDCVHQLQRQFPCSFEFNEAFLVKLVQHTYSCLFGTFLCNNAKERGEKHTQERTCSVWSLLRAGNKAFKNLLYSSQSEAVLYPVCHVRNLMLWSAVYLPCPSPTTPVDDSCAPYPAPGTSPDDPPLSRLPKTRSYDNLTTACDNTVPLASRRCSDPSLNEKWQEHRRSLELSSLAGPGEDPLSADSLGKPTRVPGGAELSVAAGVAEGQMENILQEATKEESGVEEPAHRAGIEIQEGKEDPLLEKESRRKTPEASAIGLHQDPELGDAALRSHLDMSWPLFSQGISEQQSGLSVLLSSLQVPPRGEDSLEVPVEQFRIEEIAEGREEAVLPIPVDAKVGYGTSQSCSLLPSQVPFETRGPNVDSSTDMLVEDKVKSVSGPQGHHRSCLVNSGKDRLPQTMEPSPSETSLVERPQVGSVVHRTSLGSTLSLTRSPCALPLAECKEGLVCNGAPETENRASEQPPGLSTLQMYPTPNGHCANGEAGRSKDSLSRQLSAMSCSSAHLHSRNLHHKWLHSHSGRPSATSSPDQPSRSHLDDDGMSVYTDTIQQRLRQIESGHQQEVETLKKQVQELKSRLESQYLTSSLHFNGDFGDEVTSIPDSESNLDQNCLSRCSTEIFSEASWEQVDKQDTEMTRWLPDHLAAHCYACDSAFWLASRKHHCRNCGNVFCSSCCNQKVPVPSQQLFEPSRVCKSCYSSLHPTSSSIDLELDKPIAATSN
UniProt Q13614, whole entry, looked up: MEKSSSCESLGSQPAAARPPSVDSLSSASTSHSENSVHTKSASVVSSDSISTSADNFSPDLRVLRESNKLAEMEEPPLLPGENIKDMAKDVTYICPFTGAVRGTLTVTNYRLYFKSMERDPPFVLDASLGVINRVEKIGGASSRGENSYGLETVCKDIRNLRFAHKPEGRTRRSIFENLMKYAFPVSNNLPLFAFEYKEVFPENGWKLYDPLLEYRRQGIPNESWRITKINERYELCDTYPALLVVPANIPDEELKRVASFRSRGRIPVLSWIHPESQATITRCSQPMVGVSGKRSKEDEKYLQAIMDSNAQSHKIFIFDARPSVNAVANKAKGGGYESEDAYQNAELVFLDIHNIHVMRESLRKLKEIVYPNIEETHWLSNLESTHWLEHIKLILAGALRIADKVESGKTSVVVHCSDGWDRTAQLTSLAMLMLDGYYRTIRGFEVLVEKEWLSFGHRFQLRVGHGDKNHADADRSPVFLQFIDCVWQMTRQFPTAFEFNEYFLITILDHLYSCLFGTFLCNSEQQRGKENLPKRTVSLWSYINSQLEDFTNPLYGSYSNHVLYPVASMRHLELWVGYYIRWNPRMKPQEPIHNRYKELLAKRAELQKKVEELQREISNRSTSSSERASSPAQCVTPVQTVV
UniProt Q03426, whole entry, looked up: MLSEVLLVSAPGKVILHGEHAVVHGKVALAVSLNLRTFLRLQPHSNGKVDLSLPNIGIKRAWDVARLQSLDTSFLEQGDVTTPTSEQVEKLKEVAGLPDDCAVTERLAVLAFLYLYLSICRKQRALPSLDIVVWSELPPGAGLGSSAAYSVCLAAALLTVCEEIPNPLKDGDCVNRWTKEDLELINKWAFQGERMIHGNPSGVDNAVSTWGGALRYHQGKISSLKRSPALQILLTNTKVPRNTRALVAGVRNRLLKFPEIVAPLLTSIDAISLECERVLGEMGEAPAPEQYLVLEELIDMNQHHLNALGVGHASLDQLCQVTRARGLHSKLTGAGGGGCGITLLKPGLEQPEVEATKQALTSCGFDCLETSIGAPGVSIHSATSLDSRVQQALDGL
UniProt P20585: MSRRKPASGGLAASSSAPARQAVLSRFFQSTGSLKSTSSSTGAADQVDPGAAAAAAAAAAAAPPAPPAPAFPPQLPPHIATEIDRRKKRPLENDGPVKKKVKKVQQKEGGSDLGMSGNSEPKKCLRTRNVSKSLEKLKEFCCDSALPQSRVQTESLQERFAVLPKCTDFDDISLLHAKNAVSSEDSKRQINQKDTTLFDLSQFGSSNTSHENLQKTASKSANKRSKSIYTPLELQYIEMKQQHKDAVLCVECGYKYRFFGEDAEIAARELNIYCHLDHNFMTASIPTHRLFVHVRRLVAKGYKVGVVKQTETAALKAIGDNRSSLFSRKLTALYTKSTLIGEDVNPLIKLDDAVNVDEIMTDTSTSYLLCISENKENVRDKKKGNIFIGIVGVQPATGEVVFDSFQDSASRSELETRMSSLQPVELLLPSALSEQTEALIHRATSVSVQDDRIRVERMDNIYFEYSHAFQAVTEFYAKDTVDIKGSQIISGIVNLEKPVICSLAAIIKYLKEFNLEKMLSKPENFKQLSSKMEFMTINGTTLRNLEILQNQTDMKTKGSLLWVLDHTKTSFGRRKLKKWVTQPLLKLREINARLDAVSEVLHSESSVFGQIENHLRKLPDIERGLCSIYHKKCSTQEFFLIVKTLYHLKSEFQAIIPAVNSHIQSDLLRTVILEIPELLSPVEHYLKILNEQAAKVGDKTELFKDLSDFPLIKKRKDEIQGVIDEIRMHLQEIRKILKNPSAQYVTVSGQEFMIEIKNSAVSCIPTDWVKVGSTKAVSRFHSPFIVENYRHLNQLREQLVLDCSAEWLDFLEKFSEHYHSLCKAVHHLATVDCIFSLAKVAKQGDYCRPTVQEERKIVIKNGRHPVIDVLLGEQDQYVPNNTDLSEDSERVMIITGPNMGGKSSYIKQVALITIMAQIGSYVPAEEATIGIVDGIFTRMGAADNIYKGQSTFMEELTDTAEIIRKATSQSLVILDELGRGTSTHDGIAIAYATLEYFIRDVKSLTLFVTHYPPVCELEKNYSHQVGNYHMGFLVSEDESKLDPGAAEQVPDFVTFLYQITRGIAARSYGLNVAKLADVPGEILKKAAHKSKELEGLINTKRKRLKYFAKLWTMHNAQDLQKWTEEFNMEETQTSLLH
UniProt Q9ULH7: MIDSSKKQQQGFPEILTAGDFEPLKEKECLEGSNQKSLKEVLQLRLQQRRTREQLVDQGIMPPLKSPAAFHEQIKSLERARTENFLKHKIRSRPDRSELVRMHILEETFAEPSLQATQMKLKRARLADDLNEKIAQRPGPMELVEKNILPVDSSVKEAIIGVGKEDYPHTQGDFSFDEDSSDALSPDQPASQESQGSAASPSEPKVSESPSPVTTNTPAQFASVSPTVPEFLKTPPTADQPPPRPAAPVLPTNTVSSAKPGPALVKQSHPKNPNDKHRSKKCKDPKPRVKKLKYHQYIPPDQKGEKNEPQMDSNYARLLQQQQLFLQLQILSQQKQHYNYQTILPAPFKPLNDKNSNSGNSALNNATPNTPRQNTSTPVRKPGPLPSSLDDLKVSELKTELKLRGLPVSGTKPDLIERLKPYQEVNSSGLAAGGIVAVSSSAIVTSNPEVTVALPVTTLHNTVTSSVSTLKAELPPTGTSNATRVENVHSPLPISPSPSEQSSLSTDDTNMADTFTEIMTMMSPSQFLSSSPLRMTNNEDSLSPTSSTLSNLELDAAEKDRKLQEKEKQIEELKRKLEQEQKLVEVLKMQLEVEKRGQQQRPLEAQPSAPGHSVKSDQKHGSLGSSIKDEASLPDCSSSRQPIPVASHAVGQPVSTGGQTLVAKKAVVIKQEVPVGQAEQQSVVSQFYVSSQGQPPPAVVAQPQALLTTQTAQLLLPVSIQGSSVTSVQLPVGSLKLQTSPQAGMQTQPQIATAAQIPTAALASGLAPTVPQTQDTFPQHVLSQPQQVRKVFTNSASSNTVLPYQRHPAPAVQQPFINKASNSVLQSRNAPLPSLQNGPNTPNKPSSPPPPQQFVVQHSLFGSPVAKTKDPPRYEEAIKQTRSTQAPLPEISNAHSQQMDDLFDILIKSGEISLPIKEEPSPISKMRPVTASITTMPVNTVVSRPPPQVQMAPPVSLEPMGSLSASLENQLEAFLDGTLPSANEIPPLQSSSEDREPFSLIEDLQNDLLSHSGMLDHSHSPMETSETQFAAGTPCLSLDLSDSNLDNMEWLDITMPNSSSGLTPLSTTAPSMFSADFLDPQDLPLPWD

How the values were obtained:
Assay in all cases: log2 fold change, soluble protein after heating vs DMSO (PISA); higher = thermal stabilisation; K562 cells, 10 uM, 30 min; active = over 0.2 and 3.5 SD of the protein, either way, in both replicates (recomputed)
bafetinib = compound: Cc1ccc(NC(=O)c2ccc(CN3CC[C@H](N(C)C)C3)c(C(F)(F)F)c2)cc1Nc1nccc(-c2cncnc2)n1 [bafetinib]
How it was run: (§1)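 Values are thermal stability changes relative to control samples and are taken from duplicates. They are stated as log2 fold changes. Before quantification by TMTpro 16plex LC-MS/MS with equalised channel sums, K562 cells at 2×10^6 cells/mL were treated with 10 μM compound for 30 min, heated in aliquots for 3 min across 48°C-58°C, pooled, extracted in PBS with 0.5% NP-40 at 4°C, and centrifuged at 21,000xg for 90 min to give the soluble supernatant.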

[1] = compound: Cc1cccc(CC(=O)N2CCc3c2ccc(-c2cn(C)c4ncnc(N)c24)c3F)n1
How it was run: as §1

nilotinib = compound: Cc1cn(-c2cc(NC(=O)c3ccc(C)c(Nc4nccc(-c5cccnc5)n4)c3)cc(C(F)(F)F)c2)cn1 [nilotinib]
How it was run: as §1

[2] = compound: Cc1nc(Nc2n[nH]c3c2CN(C(=O)N[C@H](CN(C)C)c2ccccc2)C3(C)C)c2sccc2n1
How it was run: as §1

dasatinib = compound: Cc1nc(Nc2ncc(C(=O)Nc3c(C)cccc3Cl)s2)cc(N2CCN(CCO)CC2)n1 [dasatinib]
How it was run: as §1

[3] = compound: Cc1ncc(-c2ccnc(Nc3ccc(S(C)(=O)=O)cc3)n2)n1C(C)C
How it was run: as §1

[4] = compound: Cn1cc(-c2ccc3c(c2)CCN3C(=O)Cc2cccc(C(F)(F)F)c2)c2c(N)ncnc21
How it was run: as §1

[5] = compound: Cn1cc(-c2ccc3nnc(C(F)(F)c4ccc5ncccc5c4)n3n2)cn1
How it was run: as §1

tipifarnib = compound: Cn1cncc1[C@@](N)(c1ccc(Cl)cc1)c1ccc2c(c1)c(-c1cccc(Cl)c1)cc(=O)n2C [tipifarnib]
How it was run: as §1

mubritinib = compound: FC(F)(F)c1ccc(/C=C/c2nc(COc3ccc(CCCCn4ccnn4)cc3)co2)cc1 [mubritinib]
How it was run: as §1

[6] = compound: NC(=O)Nc1cc(-c2cccc(F)c2)sc1C(=O)N[C@H]1CCCNC1
How it was run: as §1

[7] = compound: NC(=O)c1cnc(N[C@@H]2CCCC[C@@H]2N)nc1Nc1cccc(-n2nccn2)c1
How it was run: as §1

[8] = compound: NC1(c2ccc(-c3nc4ccn5c(=O)[nH]nc5c4cc3-c3ccccc3)cc2)CCC1
How it was run: as §1

[9] = compound: NCC(=O)Nc1ccc(-n2nc(C(F)(F)F)cc2-c2ccc3c(ccc4ccccc43)c2)cc1
How it was run: as §1

entinostat = compound: Nc1ccccc1NC(=O)c1ccc(CNC(=O)OCc2cccnc2)cc1 [entinostat]
How it was run: as §1

vorinostat = compound: O=C(CCCCCCC(=O)Nc1ccccc1)NO [vorinostat]
How it was run: as §1

citarinostat = compound: O=C(CCCCCCNC(=O)c1cnc(N(c2ccccc2)c2ccccc2Cl)nc1)NO [citarinostat]
How it was run: as §1

silmitasertib = compound: O=C(O)c1ccc2c(c1)nc(Nc1cccc(Cl)c1)c1ccncc12 [silmitasertib]
How it was run: as §1

[10] = compound: O=C1NC(=O)C(c2cnc3ccccn23)=C1c1cn2c3c(cc(F)cc13)CN(C(=O)N1CCCCC1)CC2
How it was run: as §1

[11] = compound: c1cc(OCCN2CCCCC2)cc(-c2n[nH]c3ccc(-c4nnc[nH]4)cc23)c1
How it was run: as §1

Measured: log2 fold change

MTMR3 (UniProt Q13615)
inactive: bafetinib 0.122 | [1] -0.034 | nilotinib 0.012 | [2] -0.055 | dasatinib -0.057 | [3] -0.024 | [4] 0.136 | [5] 0.015 | tipifarnib -0.049 | mubritinib 0.042 | [6] 0.072 | [7] 0.03 | [8] -0.11 | [9] -0.139 | entinostat -0.062 | vorinostat -0.029 | citarinostat 0.087 | silmitasertib 0.002 | [10] -0.009 | [11] 0.009

MTMR2 (UniProt Q13614)
inactive: bafetinib -0.009 | [1] -0.024 | nilotinib 0 | [2] 0.049 | dasatinib -0.039 | [3] -0.026 | [4] 0.121 | [5] -0.1 | tipifarnib 0.038 | mubritinib 0.012 | [6] -0.012 | [7] -0.014 | [8] -0.026 | [9] -0.055 | entinostat -0.011 | vorinostat 0.009 | citarinostat 0.033 | silmitasertib 0.03 | [10] -0.009 | [11] -0.102

MRPS22 (UniProt P82650)
inactive: bafetinib 0.233 | [1] 0.137 | nilotinib -0.21 | [2] 0.044 | dasatinib -0.024 | [3] 0.012 | [4] 0.003 | [5] 0.017 | tipifarnib -0.11 | mubritinib 0.15 | [6] -0.008 | [7] 0.031 | [8] -0.098 | [9] 0.006 | entinostat 0.027 | vorinostat 0.131 | citarinostat 0.035 | silmitasertib -0.071 | [10] -0.069 | [11] -0.006

MVK (UniProt Q03426)
inactive: bafetinib -0.058 | [1] -0.011 | nilotinib -0.012 | [2] -0.012 | dasatinib 0.029 | [3] -0.011 | [4] 0.023 | [5] -0.006 | tipifarnib -0.021 | mubritinib -0.002 | [6] -0.031 | [7] -0.02 | [8] -0.04 | [9] -0.005 | entinostat -0.042 | vorinostat 0.031 | citarinostat 0.036 | silmitasertib 0.044 | [10] -0.033 | [11] -0.063

MRPS25 (UniProt P82663)
inactive: bafetinib 0.125 | [1] 0.158 | nilotinib -0.144 | [2] -0.043 | dasatinib -0.105 | [3] 0.044 | [4] 0.037 | [5] 0 | tipifarnib -0.077 | mubritinib 0.069 | [6] -0.031 | [7] 0.046 | [8] 0.04 | [9] 0.04 | entinostat 0.021 | vorinostat -0.036 | citarinostat 0.073 | silmitasertib -0.053 | [10] 0.062 | [11] -0.074

MSH3 (UniProt P20585)
inactive: bafetinib -0.012 | [1] 0.051 | nilotinib -0.046 | [2] -0.014 | dasatinib -0.038 | [3] 0.052 | [4] -0.032 | [5] 0.009 | tipifarnib -0.029 | mubritinib 0.167 | [6] -0.175 | [7] -0.001 | [8] -0.126 | [9] -0.007 | entinostat -0.032 | vorinostat -0.017 | citarinostat 0.031 | silmitasertib 0.034 | [10] -0.069 | [11] -0.019

MRTFB isoform 5 (UniProt Q9ULH7)
inactive: bafetinib -0.032 | [1] 0.025 | nilotinib 0.029 | [2] 0.021 | dasatinib 0.087 | [3] -0.004 | [4] 0.088 | [5] -0.004 | tipifarnib -0.007 | mubritinib 0.063 | [6] 0.042 | [7] -0.063 | [8] -0.004 | [9] -0.018 | entinostat -0.011 | vorinostat -0.019 | citarinostat 0.013 | silmitasertib -0.064 | [10] -0.006 | [11] 0.004

MRPS28 (UniProt Q9Y2Q9)
inactive: bafetinib 0.201 | [1] 0.177 | nilotinib -0.114 | [2] 0.114 | dasatinib -0.016 | [3] -0.077 | [4] -0.085 | [5] 0.066 | tipifarnib 0 | mubritinib 0.073 | [6] 0.071 | [7] 0.04 | [8] -0.011 | [9] 0.132 | entinostat 0.008 | vorinostat 0.161 | citarinostat 0.005 | silmitasertib -0.074 | [10] -0.083 | [11] 0.047
